The record followed here is publication doi:10.1101/2023.08.03.551696.

Sequences of proteins named here, by UniProt entry; tags and fusion partners are left off. A change or cut given only in a name is not applied to a line headed by its entry.
UniProt P01584: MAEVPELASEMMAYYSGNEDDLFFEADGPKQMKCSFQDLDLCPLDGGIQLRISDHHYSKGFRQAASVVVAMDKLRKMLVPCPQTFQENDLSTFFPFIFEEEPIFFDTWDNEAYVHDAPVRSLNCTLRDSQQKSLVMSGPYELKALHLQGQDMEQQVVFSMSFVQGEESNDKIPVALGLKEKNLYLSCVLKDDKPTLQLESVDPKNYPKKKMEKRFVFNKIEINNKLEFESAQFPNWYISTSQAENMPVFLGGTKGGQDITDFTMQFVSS

The target of this assay is T1, MxA-V5 (myxovirus resistant protein 1, V5-tagged) (human) (UniProt P20591).
T1 sequence: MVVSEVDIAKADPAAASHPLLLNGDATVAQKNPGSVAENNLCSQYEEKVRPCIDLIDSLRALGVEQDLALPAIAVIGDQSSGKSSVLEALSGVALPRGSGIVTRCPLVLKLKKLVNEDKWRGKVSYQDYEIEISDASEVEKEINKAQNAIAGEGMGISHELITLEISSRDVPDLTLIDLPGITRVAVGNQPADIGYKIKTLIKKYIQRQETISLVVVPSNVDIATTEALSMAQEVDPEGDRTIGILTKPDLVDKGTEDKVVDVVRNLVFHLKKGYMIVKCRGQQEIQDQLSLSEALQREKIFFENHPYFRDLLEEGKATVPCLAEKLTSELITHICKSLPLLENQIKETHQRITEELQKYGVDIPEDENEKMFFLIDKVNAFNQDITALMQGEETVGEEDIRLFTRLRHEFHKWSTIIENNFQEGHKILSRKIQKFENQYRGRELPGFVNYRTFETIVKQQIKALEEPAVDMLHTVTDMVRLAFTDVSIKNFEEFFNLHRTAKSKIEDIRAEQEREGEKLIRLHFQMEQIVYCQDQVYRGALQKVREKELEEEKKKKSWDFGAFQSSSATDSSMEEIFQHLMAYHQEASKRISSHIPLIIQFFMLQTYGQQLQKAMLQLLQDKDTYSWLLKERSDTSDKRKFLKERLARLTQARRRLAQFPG
The assay can be described thus: co-IP.

These are yes or no findings as the source states them, for the method shown. Binding seen in cells or lysates may run through a third protein. Tags and fused reporters may be left off the sequences shown.

With “pro-IL-1β (endogenous) (from UniProt P01584)”, the binding result is “no binding”.
